Results taken from US20220281969A1 (ANTLERA THERAPEUTICS, published 2022).
No constants are given. Whether binding was seen depends on the method and setting. Some results given as binding are weak or reduced against the parent protein; the word gives no strength.

Molecular target: T1, recombinant mouse LRP6His chimera (mouse, UniProt O88572 20-1370)
T1 construct: extracellular domain; not shown: His tag
T1 sequence (looked up): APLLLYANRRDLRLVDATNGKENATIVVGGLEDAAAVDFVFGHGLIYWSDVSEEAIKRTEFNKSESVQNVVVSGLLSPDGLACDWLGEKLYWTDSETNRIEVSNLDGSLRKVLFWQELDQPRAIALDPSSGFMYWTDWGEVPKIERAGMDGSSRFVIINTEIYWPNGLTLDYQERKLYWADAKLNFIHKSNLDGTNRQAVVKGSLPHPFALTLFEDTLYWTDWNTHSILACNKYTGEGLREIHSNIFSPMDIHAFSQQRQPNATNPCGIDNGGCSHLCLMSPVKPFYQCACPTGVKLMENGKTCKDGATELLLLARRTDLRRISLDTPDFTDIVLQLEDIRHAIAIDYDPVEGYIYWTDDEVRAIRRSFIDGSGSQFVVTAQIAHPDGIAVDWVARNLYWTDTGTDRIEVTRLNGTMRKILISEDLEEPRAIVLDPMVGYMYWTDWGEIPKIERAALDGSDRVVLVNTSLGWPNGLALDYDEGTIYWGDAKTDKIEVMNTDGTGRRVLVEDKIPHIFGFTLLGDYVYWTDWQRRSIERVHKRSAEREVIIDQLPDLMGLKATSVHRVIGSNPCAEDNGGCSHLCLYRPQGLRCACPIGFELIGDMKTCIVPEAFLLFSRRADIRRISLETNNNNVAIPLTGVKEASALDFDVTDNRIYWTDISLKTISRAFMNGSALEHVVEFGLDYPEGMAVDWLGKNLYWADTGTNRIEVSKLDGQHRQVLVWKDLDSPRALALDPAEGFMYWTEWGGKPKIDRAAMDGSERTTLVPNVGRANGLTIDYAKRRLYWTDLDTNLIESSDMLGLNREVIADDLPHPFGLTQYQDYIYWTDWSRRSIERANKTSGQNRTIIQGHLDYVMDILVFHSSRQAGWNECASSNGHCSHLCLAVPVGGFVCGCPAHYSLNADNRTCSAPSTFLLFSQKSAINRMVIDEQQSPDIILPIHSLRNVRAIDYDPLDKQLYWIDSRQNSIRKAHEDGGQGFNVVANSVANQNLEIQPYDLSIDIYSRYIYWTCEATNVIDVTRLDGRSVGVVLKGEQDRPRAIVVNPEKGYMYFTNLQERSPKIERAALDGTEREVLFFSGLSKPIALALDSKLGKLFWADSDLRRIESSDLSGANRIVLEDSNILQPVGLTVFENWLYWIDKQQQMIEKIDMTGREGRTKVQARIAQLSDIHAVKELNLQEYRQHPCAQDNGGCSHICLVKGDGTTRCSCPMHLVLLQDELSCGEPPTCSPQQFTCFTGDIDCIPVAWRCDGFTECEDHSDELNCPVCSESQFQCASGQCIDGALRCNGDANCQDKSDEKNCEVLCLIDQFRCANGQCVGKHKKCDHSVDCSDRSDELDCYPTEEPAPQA
Assay: single-point ELISA, IgG1 on coated antigen
Procedure: FIGS. 1a and 1b show LRP six antibodies. (A) The amino acid sequences of the complementarity determining regions (CDR) of the heavy (H) and the light (L) chains are presented. The antibodies were grouped into unique epitopes as determined by competitive ELISAs. (B) Single-point ELISAs were performed on 96-well Maxisorb immune plates coated with the […] of mouse LRP5, mouse LRP6 and human LRP6 chimeras. The plates were incubated with the purified Fab or IgG1 at the concentrations indicated followed by incubation with horseradish peroxidase (HRP)-conjugated anti-kappa antibody. The wells were washed eight times followed by incubation with 3,3′,5,5′-tetramethylbenzidine/H₂O₂ peroxidase (TMB) substrate for 5-10 min. The reaction was stopped by adding one M H₃PO₄ and the absorbance was measured spectrometrically at 450 nm in a microtiter plate reader.
The full length IgG1s were purified and a single-point ELISA was done to determine the specificity of the antibodies. […] A multipoint competitive ELISA was used to determine the relative affinities of the antibodies to the recombinant antigen.

B1: LRP6-A10 IgG1 antibody (antibody, V domains shown)
VH: EVQLVESGGGLVQPGGSLRLSCAASGFNISYSSIHWVRQAPGKGLEWVAYISSYYGYTYYADSVKGRFTISADTSKNTAYLQMNSLRAEDTAVYYCARAHYFPWAGAMDYWGQGTLVTVSS
VL: DIQMTQSPSSLSASVGDRVTITCRASQSVSSAVAWYQQKPGKAPKLLIYSASSLYSGVPSRFSGSRSGTDFTLTISSLQPEDFATYYCQQYSWGPFTFGQGTKVEIKR
notes: Tested as purified full length IgG1
binding: binds
